Measured values from publication doi:10.1101/846121.
These are yes or no findings as the source states them, for the method shown. Binding seen in cells or lysates may run through a third protein. Some entries that bind do so weakly or less than the wild type.

By UniProt entry, the sequences of proteins in these tests, tags left out.
UniProt Q9VI13: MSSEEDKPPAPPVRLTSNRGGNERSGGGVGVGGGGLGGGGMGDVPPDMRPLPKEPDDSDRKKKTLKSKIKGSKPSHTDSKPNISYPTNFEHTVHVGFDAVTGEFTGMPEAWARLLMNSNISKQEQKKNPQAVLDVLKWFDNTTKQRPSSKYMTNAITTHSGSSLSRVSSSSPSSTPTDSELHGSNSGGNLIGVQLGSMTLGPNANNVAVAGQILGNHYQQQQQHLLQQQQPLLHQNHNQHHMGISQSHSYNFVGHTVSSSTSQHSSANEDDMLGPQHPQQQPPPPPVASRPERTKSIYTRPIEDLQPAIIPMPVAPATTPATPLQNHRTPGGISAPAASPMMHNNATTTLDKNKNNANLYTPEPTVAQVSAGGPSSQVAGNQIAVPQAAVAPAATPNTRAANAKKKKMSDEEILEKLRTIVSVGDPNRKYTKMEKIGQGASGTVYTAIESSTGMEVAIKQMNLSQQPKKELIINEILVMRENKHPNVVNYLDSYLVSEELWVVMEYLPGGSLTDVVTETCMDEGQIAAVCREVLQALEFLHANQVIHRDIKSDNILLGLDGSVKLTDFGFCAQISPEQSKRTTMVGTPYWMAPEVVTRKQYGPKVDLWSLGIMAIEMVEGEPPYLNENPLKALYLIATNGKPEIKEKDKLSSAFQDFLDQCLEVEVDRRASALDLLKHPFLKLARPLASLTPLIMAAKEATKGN

T1: Discs large (Dlg) (Drosophila (endogenous in third instar larval body wall)) (UniProt P31007)
T1 sequence: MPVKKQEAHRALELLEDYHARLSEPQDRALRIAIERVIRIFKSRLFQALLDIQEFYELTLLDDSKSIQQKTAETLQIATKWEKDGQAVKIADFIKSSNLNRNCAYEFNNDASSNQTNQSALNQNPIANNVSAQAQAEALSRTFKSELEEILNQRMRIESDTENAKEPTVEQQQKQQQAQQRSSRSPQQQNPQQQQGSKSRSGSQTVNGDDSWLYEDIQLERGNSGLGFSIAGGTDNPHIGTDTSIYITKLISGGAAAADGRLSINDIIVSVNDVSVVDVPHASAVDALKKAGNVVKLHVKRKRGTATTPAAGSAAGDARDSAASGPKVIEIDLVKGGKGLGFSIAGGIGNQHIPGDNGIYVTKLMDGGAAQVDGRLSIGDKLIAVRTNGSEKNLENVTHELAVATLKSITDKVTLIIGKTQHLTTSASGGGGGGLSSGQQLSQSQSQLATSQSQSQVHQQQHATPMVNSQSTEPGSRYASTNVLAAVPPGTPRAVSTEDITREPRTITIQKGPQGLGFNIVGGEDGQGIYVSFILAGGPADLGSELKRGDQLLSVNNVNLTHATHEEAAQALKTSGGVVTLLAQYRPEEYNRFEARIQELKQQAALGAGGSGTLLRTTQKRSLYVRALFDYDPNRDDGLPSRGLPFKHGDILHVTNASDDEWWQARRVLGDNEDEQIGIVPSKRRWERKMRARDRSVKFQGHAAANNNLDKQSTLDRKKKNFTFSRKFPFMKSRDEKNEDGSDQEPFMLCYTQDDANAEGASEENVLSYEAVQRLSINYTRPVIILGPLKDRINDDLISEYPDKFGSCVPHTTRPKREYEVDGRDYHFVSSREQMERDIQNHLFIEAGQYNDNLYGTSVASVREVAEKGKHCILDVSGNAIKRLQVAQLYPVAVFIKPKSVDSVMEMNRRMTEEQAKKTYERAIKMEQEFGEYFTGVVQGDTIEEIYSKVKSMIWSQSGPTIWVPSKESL


Biological target: T1, Discs large (Dlg) (Drosophila (endogenous in third instar larval body wall))
Test: proximity ligation

binding	Molecule
binds	Pak (from UniProt Q9VI13 1-704) (enzyme)
binds	Draper (Drpr) (receptor, UniProt Q9W0A0 17-1031) QADLKDLDGPNICKRRELYNVDVVYTELQSFQERGSTWCVTFPPRCSTYRIKHRVVNKTKTIAKNRIVRDCCDGYIASAGECVPHCSEPCQHGRCISPEKCKCDHGYGGPACDINCPPGWYGRNCSMQCDCLNNAVCEPFSGDCECAKGYTGARCADICPEGFFGANCSEKCRCENGGKCHHVSGECQCAPGFTGPLCDMRCPDGKHGAQCQQDCPCQNDGKCQPETGACMCNPGWTGDVCANKCPVGSYGPGCQESCECYKGAPCHHITGQCECPPGYRGERCFDECQLNTYGFNCSMTCDCANDAMCDRANGTCICNPGWTGAKCAERICEANKYGLDCNRTCECDMEHTDLCHPETGNCQCSIGWSSAQCTRPCTFLRYGPNCELTCNCKNGAKCSPVNGTCLCAPGWRGPTCEESCEPGTFGQDCALRCDCQNGAKCEPETGQCLCTAGWKNIKCDRPCDLNHFGQDCAKVCDCHNNAACNPQNGSCTCAAGWTGERCERKCDTGKFGHDCAQKCQCDFNNSLACDATNGRCVCKQDWGGVHCETNCRSGYYGENCDKVCRCLNNSSCDPDSGNCICSAGWTGADCAEPCPPGFYGMECKERCPEILHGNKSCDHITGEILCRTGYIGLTCEHPCPAGLYGPGCKLKCNCEHGGECNHVTGQCQCLPGWTGSNCNESCPTDTYGQGCAQRCRCVHHKVCRKADGMCICETGWSGTRCDEVCPEGFYGEHCMNTCACPSANFQCHAAHGCVCRSGYTGDNCDELIASQRIADQSENSSRASVALTLVLMTLFACIIFAVFIYYRRRVSNLKTEIAHVHYTHDTNPPSWPPNHNFDNPVYGMQAETRLLPNNMRSKMNNFDQRSTMSTDYGDDCNASGRVGSYSINYNHDLLTKNLNADRTNPIVYNESLKEEHVYDEIKHKEGYKDPDEYDHLDYSRPSTSQKPHYHRMNDAMLNINQDEEKPSNVKNMTVLLNKPLPPTEPEPQHECFDNTNTNLDNVSTASPSSSPKFLK
